Experimental data as given in paper PMC7284125, “Identification of annotated bioactive molecules that impair motility of the blood fluke Schistosoma mansoni” (International Journal for Parasitology: Drugs and Drug …, 2020).

Test system: S. mansoni schistosomulae
Assay: Phenotypic primary screen assay on schistosomulae (phenotype; viability by methylene blue dye exclusion)
Type: cell-based
Conditions: Schistosoma mansoni, three-day-old schistosomulae, 24 h, calculated 5 days post compound exposure

In the case of `CCCCc1oc2ccccc2c1C(=O)c1cc(I)c(OCCN(CC)CC)c(I)c1` [Amiodarone], the viability at 10 µM is reported as 55%.
